Reference: paper PMC10763564 (RSC Chemical Biology, 2023)

assay: general procedure: Fmoc solid-phase peptide synthesis; Rink amide (aminomethyl)polystyrene resin (substitution of 0.70 mmol/g); details: whole synthesis, scale of the general procedure 200 μmols

Substance	final HPLC purity
H-CVHWDCRQWWQPSC-NH2 (TBMB)	95%
H-CVHWDFRCQWWQPSC-NH2 (TBMB)	> 98%
H-GVHWDFRQWWQPS-NH2	> 98%
Mal-GSGCVHWDCRQWC-NH2 (TBMB)	>98%
N3-GSGCVHWDCRQWC-NH2 (TBMB)	> 98%
N3-TFFYGGSRGKRNNFKTEEY-NH2	> 98%
PEPTIDE1{C.V.H.W.D.C.R.Q.W.C.[am]}|CHEM1{[TBMB]}$PEPTIDE1,CHEM1,1:R3-1:R1|PEPTIDE1,CHEM1,6:R3-1:R2|PEPTIDE1,CHEM1,10:R3-1:R3$$$V2.0	> 98%
PEPTIDE1{C.V.H.W.D.F.R.Q.W.C.Q.P.S.C.[am]}|CHEM1{[TBMB]}$PEPTIDE1,CHEM1,1:R3-1:R1|PEPTIDE1,CHEM1,10:R3-1:R2|PEPTIDE1,CHEM1,14:R3-1:R3$$$V2.0	> 98%
sCy5-CVHWDCRQWWQPSC-NH2 (TBMB)	> 98%
sCy5-CVHWDFRCQWWQPSC-NH2 (TBMB)	90%
sCy5-CVHWDFRQWCQPSC-NH2 (TBMB)	> 98%
sCy5-GSGCVHWDCRQWC-NH2 (TBMB)	> 98%
sCy5-GVHWDFRQWWQPS-NH2	> 98%

HELM strings list residues between dots; [ac] is acetyl, [am] amide, other brackets name non-standard units.
